Measurements: publication PMC7904913
No constants are given. Whether binding was seen depends on the method and setting. In cells and extracts the contact can be indirect. For some assays here: Binding calls can cover weak binding; strength is not graded here.

Experiments:
[1] = target: PD-L1 with the extracellular domain (ED) deleted; experiment: co-IP; HEK293T cells transfected with the indicated plasmids (PD-L1 and its deletion mutants)
PD-L1-ΔCyto = experiment: as above

B1: SA1 in HEK293T cells (protein, UniProt Q8WVM7 1-1258)
chain: MITSELPVLQDSTNETTAHSDAGSELEETEVKGKRKRGRPGRPPSTNKKPRKSPGEKSRIEAGIRGAGRGRANGHPQQNGEGEPVTLFEVVKLGKSAMQSVVDDWIESYKQDRDIALLDLINFFIQCSGCRGTVRIEMFRNMQNAEIIRKMTEEFDEDSGDYPLTMPGPQWKKFRSNFCEFIGVLIRQCQYSIIYDEYMMDTVISLLTGLSDSQVRAFRHTSTLAAMKLMTALVNVALNLSIHQDNTQRQYEAERNKMIGKRANERLELLLQKRKELQENQDEIENMMNSIFKGIFVHRYRDAIAEIRAICIEEIGVWMKMYSDAFLNDSYLKYVGWTLHDRQGEVRLKCLKALQSLYTNRELFPKLELFTNRFKDRIVSMTLDKEYDVAVEAIRLVTLILHGSEEALSNEDCENVYHLVYSAHRPVAVAAGEFLHKKLFSRHDPQAEEALAKRRGRNSPNGNLIRMLVLFFLESELHEHAAYLVDSLWESSQELLKDWECMTELLLEEPVQGEEAMSDRQESALIELMVCTIRQAAEAHPPVGRGTGKRVLTAKERKTQIDDRNKLTEHFIITLPMLLSKYSADAEKVANLLQIPQYFDLEIYSTGRMEKHLDALLKQIKFVVEKHVESDVLEACSKTYSILCSEEYTIQNRVDIARSQLIDEFVDRFNHSVEDLLQEGEEADDDDIYNVLSTLKRLTSFHNAHDLTKWDLFGNCYRLLKTGIEHGAMPEQIVVQALQCSHYSILWQLVKITDGSPSKEDLLVLRKTVKSFLAVCQQCLSNVNTPVKEQAFMLLCDLLMIFSHQLMTGGREGLQPLVFNPDTGLQSELLSFVMDHVFIDQDEENQSMEGDEEDEANKIEALHKRRNLLAAFSKLIIYDIVDMHAAADIFKHYMKYYNDYGDIIKETLSKTRQIDKIQCAKTLILSLQQLFNELVQEQGPNLDRTSAHVSGIKELARRFALTFGLDQIKTREAVATLHKDGIEFAFKYQNQKGQEYPPPNLAFLEVLSEFSSKLLRQDKKTVHSYLEKFLTEQMMERREDVWLPLISYRNSLVTGGEDDRMSVNSGSSSSKTSSVRNKKGRPPLHKKRVEDESLDNTWLNRTDTMIQTPGPLPAPQLTSTVLRENSRPMGDQIQEPESEHGSEPDFLHNPQMQISWLGQPKLEDLNRKDRTGMNYMKVRTGVRHAVRGLMEEDAEPIFEDVMMSSRSQLEDMNEEFEDTMVIDLPPSRNRRERAELRPDFFDSAAIIEDDSGFGMPMF
- binding [1]: binds
- binding (PD-L1-ΔCyto): no binding
